Results are given in words; binding and its absence hold for the method and conditions named. Some binding calls cover weakened binding; strength is not graded here.

The results in this text go back to patent US20220144937A1 (JIANGSU HENGRUI MEDICINE, published 2022).

In this assay the target is T1, human IL-5 with his-tag (rhIL-5-his) (human, UniProt P05113 20-134).
T1 sequence: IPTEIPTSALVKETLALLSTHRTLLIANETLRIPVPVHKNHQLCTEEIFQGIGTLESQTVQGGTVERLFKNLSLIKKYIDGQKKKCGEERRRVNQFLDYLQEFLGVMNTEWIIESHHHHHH
Description: Biacore. The protocol: The affinity of the murine IL-5 antibody to be tested with human IL-5 was measured by Biacore T200 (GE) instrument.
The protein A biosensor chip was used to affinity capture of the molecules to be tested, and then the antigen (recombinant human and cyno IL-5 prepared in Example 1) flowed through the surface of the chip, and the reaction signal was detected in real time with the Biacore T200 instrument to obtain the binding and dissociation curves. After the dissociation of each experimental cycle was completed, the biosensor chip was washed and regenerated with glycine-hydrochloric acid regeneration solution (pH 1.5). BIA evaluation version 4.1 GE software was used to fit the data against (1:1) Langmuir model, and the affinity value was obtained and shown in Table 13.

B1: h1779-014 (antibody, human IgG1, kappa, V domains shown)
VH: EVQLVQSGAEVKKPGASVKVSCKASGYTFTDYIIHWVKQAPGQGLEWIGYFNPNSGGSNYNENFKRKATMTADKSISTAYLEFSRLRSEDTAVYYCARRIAWDHWYFDFWGQGTMVTVSS
VL: DIQMTQSPSSLSASVGDRVTITCLASEGISNDVAWYQQKPGKSPKLLVYAASRLQDGVPSRFSGSGSGTDYTFTISSLQPEDIATYYCQQGYKTPLTFGQGTKLEIKR
notes: See recheck
For the molecule B1, the binding entry is given as “binds”.
